Experimental data as given in PubChem BioAssay AID485298 (National Center for Advancing Translational Sciences (NCATS), 2010).
About 740 (0.23%) of roughly 320,000 compounds were called active. The shares of active, inactive and inconclusive entries below differ from those in the screen. Calls follow the shape of the dose curve; as a rule, active = well fitted activation curve with a large enough effect; inconclusive = small, poorly fitted or top-dose-only effect; inactive = no such curve, though single readings can be large or run the other way. Where the call is inconclusive, the potency comes from a doubtful curve fit.

Assay: qHTS Assay for Small Molecule Inhibitors of Mitochondrial Division or Activators of Mitochondrial Fusion; also: nearly all actives have a fitted effect of over 45% in size
Details: S. cerevisiae fusion-defective mutant growth rescue, CellTiterGlo 48 h; series mostly up to 46.1 µM
Summary of the method: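 S. cerevisiae fusion-defective temperature-sensitive mutants (e.g. fzo1-1, mgm1-5) grown 48 h at 37C in YPEG (ethanol/glycerol non-fermentable) medium with 23 nl compound per well; growth rescue read as CellTiterGlo luminescence.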
Potency is read from the fitted curve at half-maximal effect.

Q: Which Potency does the source give for `CCCCCCc1ccc(O)cc1O` here?
A: inconclusive: 3.16 µM [activator, partial curve]

Q: With `O=C(/C=C\c1cccs1)c1c(O)ccc2ccc(=O)oc12` as the compound, how does the Potency read?
A: inconclusive: 10 µM [activator, partial curve]

Q: Which Potency does the source give for `CCOc1ccc(NC(=O)CC2C(=O)N(CC)C(=S)N2NC(=O)c2ccncc2)cc1` (stereo not given) here?
A: inconclusive: 5.01 µM [activator, single point]

Q: Which Potency does the source give for `CC1CCC(NC(=O)c2cc3c(s2)CCCC3)CC1` (stereo not given) here?
A: inconclusive: 15.8 µM [activator, single point]

Q: For `COCCn1c(C23CC4CC(CC(C4)C2)C3)n[nH]c1=S`, which Potency is on record?
A: inactive

Q: For `CCc1c(C)c(C#N)c2nc3ccccc3n2c1NCCOC`, which Potency is on record?
A: inconclusive: 35.5 µM [activator, partial curve]

Q: Which Potency does the source give for `COc1ccc2c(CC(=O)OCC(=O)Nc3ccccc3[N+](=O)[O-])coc2c1` here?
A: inconclusive: 31.6 µM [activator, single point]

Q: For `CCCn1c(SCC(=O)Nc2ccccc2N2CCCCC2)nc2c1c(=O)n(C)c(=O)n2C`, which Potency is on record?
A: inconclusive: 12.6 µM [activator, partial curve]

Q: For `COc1cccc(-c2nnc(SCC(=O)Nc3cc(C)on3)o2)c1`, which Potency is on record?
A: inactive

Q: Which Potency does the source give for `Cc1c(/C=N/Nc2ccc(F)cc2)c(O)n(C)c(=O)c1C#N` here?
A: inactive

Q: Which Potency does the source give for `CCOc1c(C)cnc2c1c(=O)n(Cc1ccccc1F)c(=O)n2C` here?
A: inconclusive: 7.08 µM [activator, full curve, poor fit]

Q: For `CC(C)CC(C)c1cc(N)nc2nc3ccccc3n12` (stereo not given), which Potency is on record?
A: inactive

Q: With `O=C1C(SCCO)=C(SCCO)C(=O)c2ccccc21` as the compound, how does the Potency read?
A: inconclusive: 2.59 µM [activator, partial curve]

Q: For `C=CCc1ccccc1OCC(O)CN1CCN(Cc2ccc3c(c2)OCO3)CC1` (stereo not given), which Potency is on record?
A: inconclusive: 7.94 µM [activator, single point]

Q: Which Potency does the source give for `COc1ccc(C(=O)Oc2ccc3oc(=O)sc3c2)cc1` here?
A: inactive

Q: Which Potency does the source give for `O=S(=O)(Nc1nc2ccccc2nc1Cl)c1ccc2ccccc2c1` here?
A: inconclusive: 12.6 µM [activator, partial curve]

Q: Which Potency does the source give for `CCc1ccc(NC(=O)C(=O)N/N=C(\C)CC(=O)NCc2ccc(Cl)cc2)cc1` here?
A: inconclusive: 20 µM [activator, single point]

Q: For `CCNc1ccc(Br)cc(C(=O)/C=C/c2ccc(Cl)cc2)c1=O`, which Potency is on record?
A: active: 12.6 µM

Q: For `O=C(CN1CCN(c2ccccc2O)CC1)Nc1ccc([N+](=O)[O-])cc1Br`, which Potency is on record?
A: inconclusive: 15.8 µM [activator, single point]

Q: For `S=C(Nc1ccc(Cl)cc1)NC1CC2CCCC(C1)N2C1CC1` (stereo not given), which Potency is on record?
A: inactive

Q: For `CCCCN(C)C(=S)Nc1ccc2nc3n(c(=O)c2c1)CCCCC3`, which Potency is on record?
A: inactive

Q: Which Potency does the source give for `O=C(N/N=C/c1ccccn1)c1cc(Br)ccc1O` here?
A: inactive

Q: Which Potency does the source give for `COC(=O)c1cn(Cc2c(C)cc(C)cc2C)nn1` here?
A: inconclusive: 31.6 µM [activator, single point]

Q: Which Potency does the source give for `CC1=C(C(=O)N2CCN(c3cc(C)ccc3C)CC2)C2(CCC(C)CC2)OC1=O` (stereo not given) here?
A: inconclusive: 35.5 µM [activator, single point]

Q: With `COc1ccc(-c2noc(CNC(=O)c3ccc4c(c3)OCO4)n2)cc1OC` as the compound, how does the Potency read?
A: inactive

Q: For `Cc1cccc(C(C)Nc2ccc([N+](=O)[O-])cn2)c1` (stereo not given), which Potency is on record?
A: inactive

Q: Which Potency does the source give for `CC(C)=C[C@@H]1C[C@H](C)[C@H]2CC[C@H](C)c3c(O)c(O)c(C)c1c32` here?
A: inconclusive: 10 µM [activator, single point]

Q: Which Potency does the source give for `Cc1cc(C)c2[nH]c(=O)c(CN(CC3CCCO3)C(=S)Nc3ccccc3)cc2c1` (stereo not given) here?
A: inconclusive: 3.16 µM [activator, single point]

Q: With `Cn1c(=O)[nH]c(=O)c2c1nc(N1CCCCC1)n2CCCSc1nc2ccccc2s1` as the compound, how does the Potency read?
A: inconclusive: 22.4 µM [activator, single point]

Q: With `c1ccc(-c2cn3nc(-c4ccccc4)c(-c4ccccc4)nc3n2)cc1` as the compound, how does the Potency read?
A: inactive

Q: Which Potency does the source give for `COc1cc(NC(=O)CN2C(=O)COc3ccc(S(=O)(=O)N4CCCCC4)cc32)cc(OC)c1` here?
A: inactive

Q: With `Cc1cc(NC(=O)CSc2nnc(COc3ccccc3)n2Cc2ccco2)no1` as the compound, how does the Potency read?
A: inactive

Q: With `COc1ccc(N2C(=O)CC(Sc3n[nH]c(-c4ccccc4)n3)C2=O)cc1` (stereo not given) as the compound, how does the Potency read?
A: inactive

Q: For `COc1ccc(NC(=O)c2cccc(Oc3ccccc3)c2)cn1`, which Potency is on record?
A: inactive

Q: With `COc1cc2cnc(-c3ccccc3)c(-c3ccc(C#N)cc3)c2cc1OC` as the compound, how does the Potency read?
A: inconclusive: 17.8 µM [activator, single point]

Q: Which Potency does the source give for `O=C(CSc1nnc(-c2cc3ccccc3cc2O)n1Cc1ccco1)c1ccc(F)cc1` here?
A: inconclusive: 14.1 µM [activator, single point]

Q: Which Potency does the source give for `O=C(CSc1nc2ccccc2[nH]1)c1c[nH]c2ccccc12` here?
A: inactive

Q: For `CCOC(=O)/C=c1\s/c(=C\c2c(OC)ccc3ccccc23)c(=O)n1CC(=O)NCC1CCCO1` (stereo not given), which Potency is on record?
A: inactive

Q: Which Potency does the source give for `O=C(O)c1ccc2c(c1)C(=O)N([C@H](Cc1ccc(C(F)(F)F)cc1)C(=O)O)C2=O` here?
A: inactive

Q: For `CCC(C(=O)c1ccc2ncccc2c1)c1ccccc1` (stereo not given), which Potency is on record?
A: inconclusive: 20 µM [activator, single point]

Q: For `O=C(CC1SC(=Nc2ccccc2)N(Cc2ccccn2)C1=O)Nc1ccc(Br)cc1` (stereo not given), which Potency is on record?
A: inactive

Q: Which Potency does the source give for `CCCCOc1ccc2c(c1)C(=O)c1cc(O)ccc1-2` here?
A: inconclusive: 11.2 µM [activator, partial curve]

Q: Which Potency does the source give for `Brc1cccc(Cn2c(-c3cncs3)nc3ccccc32)c1` here?
A: inconclusive: 25.1 µM [activator, single point]

Q: Which Potency does the source give for `COc1ccc2cc(C(=O)OC(C)C)sc(=O)c2c1OC` here?
A: inconclusive: 22.4 µM [activator, single point]

Q: With `CCOc1ccc(OCCC(=O)Nc2ccc(F)cc2C)cc1` as the compound, how does the Potency read?
A: inconclusive: 17.8 µM [activator, partial curve]

Q: For `O=[N+]([O-])c1cc(S(=O)(=O)C(F)(F)F)ccc1N1CCN(c2ccccc2)CC1`, which Potency is on record?
A: inconclusive: 17.8 µM [activator, partial curve]

Q: With `Clc1ccc(Cn2c(/C=C/c3ccco3)nc3ccccc32)cc1` as the compound, how does the Potency read?
A: inconclusive: 22.4 µM [activator, single point]

Q: Which Potency does the source give for `c1ccc(CNc2nc(-c3cccs3)nc3ccccc23)cc1` here?
A: inconclusive: 31.6 µM [activator, single point]

Q: For `CCOC(=O)c1c(-c2cccs2)csc1NC(=O)CN1CC(C)OC(C)C1` (stereo not given), which Potency is on record?
A: inconclusive: 15.8 µM [activator, partial curve]

Q: With `COCCn1c(=S)[nH]c2ncccc2c1=O` as the compound, how does the Potency read?
A: inactive

Q: With `C[C@@H]1CC2[C@@H]3CC[C@H]4CC(=O)CC[C@]4(C)C3=CC[C@]2(C)[C@@]1(O)C(=O)CO` (stereo not given in full) as the compound, how does the Potency read?
A: inconclusive: 12.6 µM [activator, partial curve]

Q: For `CC(C)Cn1c(/C=N/Nc2nc3ccccc3[nH]2)nc2ccccc21`, which Potency is on record?
A: inconclusive: 14.1 µM [activator, single point]

Q: With `CC1(c2nnc(-c3ccccc3)o2)CC(c2ccc(Cl)cc2)=NO1` (stereo not given) as the compound, how does the Potency read?
A: inconclusive: 15.8 µM [activator, single point]

Q: Which Potency does the source give for `N#Cc1sc2nc(C3CC3)cc(-c3ccc(Cl)cc3)c2c1N` here?
A: inconclusive: 11.2 µM [activator, partial curve]

Q: With `O=S(=O)(c1ccc(-c2csc(-c3cccnc3)n2)cc1)N1CCCCC1` as the compound, how does the Potency read?
A: inconclusive: 31.6 µM [activator, single point]

Q: For `COc1ccc(Cl)cc1NC(=O)CN(C)C(=O)c1ccc(OCc2ccccc2)c(OC)c1`, which Potency is on record?
A: inconclusive: 15.8 µM [activator, single point]

Q: Which Potency does the source give for `Cc1cc(N/N=C/c2ccc(F)cc2)nc(-n2nc(C)cc2C)n1` here?
A: inconclusive: 5.01 µM [activator, single point]

Q: Which Potency does the source give for `O=C(CN1CCN(S(=O)(=O)N2CCCCC2)CC1)Nc1ccc(Cl)c(Cl)c1` here?
A: inactive

Q: Which Potency does the source give for `Cn1c2ccccc2n2c(=O)c(Cl)c(-c3ccccc3)c(C#N)c12` here?
A: inconclusive: 6.31 µM [activator, partial curve]

Q: For `Cc1[nH][nH]c(=O)c1C(c1c(C)[nH][nH]c1=O)c1cn(Cc2ccc(F)cc2)c2ccccc12`, which Potency is on record?
A: inconclusive: 11.2 µM [activator, partial curve]

Q: Which Potency does the source give for `Cc1cccc(NC(=O)C2c3ccccc3Oc3ccccc32)n1` here?
A: inconclusive: 35.5 µM [activator, single point]

Q: With `N#CCc1ccc(NC(=O)c2ccc(CN3CCc4ccccc4C3)cc2)cc1` as the compound, how does the Potency read?
A: inactive

Q: Which Potency does the source give for `CCN1CCN(c2ncnc3c2cnn3-c2ccc(Cl)cc2)CC1` here?
A: inconclusive: 10 µM [activator, partial curve]

Q: With `CCC(NC(=O)c1ccccc1O)c1ccccc1` (stereo not given) as the compound, how does the Potency read?
A: inconclusive: 22.4 µM [activator, single point]

Q: For `COC(=O)[C@]1(CC(C)C)N[C@H](c2ccc(-c3cccc(Cl)c3)cc2)[C@@H]2C(=O)N(C)C(=O)[C@@H]21`, which Potency is on record?
A: inconclusive: 12.6 µM [activator, single point]

Q: With `Cc1ccc(NC(=O)c2ccoc2C)cc1C` as the compound, how does the Potency read?
A: inconclusive: 14.1 µM [activator, single point]

Q: Which Potency does the source give for `OC(COc1ccc2cc(Br)ccc2c1)CN1CCN(c2ccccn2)CC1` (stereo not given) here?
A: inconclusive: 35.5 µM [activator, single point]

Q: For `COc1cc2ccccc2cc1C(=O)Nc1ccccc1N1CCCC1`, which Potency is on record?
A: inconclusive: 11.2 µM [activator, partial curve]

Q: Which Potency does the source give for `COc1ccc(CCNc2ccc(N3C(=O)CC(C)C3=O)cc2[N+](=O)[O-])cc1OC` (stereo not given) here?
A: inconclusive: 5.62 µM [activator, full curve]

Q: With `O=C1NC(=S)S/C1=C/c1ccc(OC(=O)c2ccco2)cc1` as the compound, how does the Potency read?
A: inconclusive: 11.2 µM [activator, partial curve]
